Experimental data as given in the supplement of paper PMC10338343.
± gives the standard deviation. The list shows a part of the results. Many of these values have a large error.

Tested on: EfPiwi piRISC loaded with L1MC piRNA (26 nt)
Experiment: pre-steady-state target cleavage rate (min^-1); guide: L1MC piRNA 5'p-UAACUAAAUACUAUGCAAGCUGUAGG; MIWI and MILI are mouse PIWI proteins and EfPiwi is from a freshwater sponge; tags in brackets are library labels; higher = faster piRNA-guided slicing of the target
Conditions: auxiliary factor: 500 nM Ephydatia muelleri Gtsf1
In short: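 At 33 °C in HEPES–potassium acetate buffer, a transcribed, DNA-blocked target RNA library […] was exposed for 0–8 or 0–960 min to 1 nM active affinity-purified piRISC carrying a single synthetic guide, with or without 500 nM GTSF1 partner protein. Uncleaved targets were sequenced and normalised to depth and to weakly complementary targets. With three trials pooled and k3 capped at 0.0001 min^-1, a burst-and-steady-state fit produced the pre-steady-state cleavage rate.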

Row | Sequence | pre-steady-state target cleavage rate
1 | UCCUGGUACAGCUUGCAUACUAAUUAGUUA | 0.0011 ± 0.0041
2 | UCCUGGAUCAGCUUGCAUUGUAUUUAGUAA | 0.00441 ± 0.0018
3 | UCCUCCUACAGGUUGCAUAGUAUUAAGUUA | 0.00576 ± 0.0023
4 | UCCUGCUACAGCUUGCAUAGUUUUAAGUUA | 0.00341 ± 0.0017
5 | UCCUGGAACAGGUUGCAUAGUAUUUAGAUA | 0.00362 ± 0.0019
6 | UCCUGGAUGUCCUUGCAUAGUAUUUAGUAUA | 0.00442 ± 0.0031
7 | UCCUGGAACAGCUUGCAUAGUUUUUAGAAA | 0.00413 ± 0.0021
8 | UCCUGCAACAGCUUGCAUAGUAUUUAGAUA | 0.00372 ± 0.002
9 | UCCUGGUACAGCUUGCAUAGUAUUAUCAAA | 0.00129 ± 0.0031
10 | UCCUGGAACAGCUUGCAUAGUAUUUAGUCUA | 0.00195 ± 0.0029
11 | UCCUGGAUGUGCUUGCAUAGUUUUUAGUUA | 0.00538 ± 0.0024
12 | UCCUGGUACAGCUUCCUUAGUAUUUAGUUA | 0.00137 ± 0.0038
13 | UCCUGGAUGUCCAUGCAAAGUAUUUAGUUA | 0.000358 ± 0.0072
14 | UCCUGGUACAGCUUGCAGAGUAUUUAGUUA | 0.00371 ± 0.0027
15 | UCCUGGAACAGCUUGCAUAGUAUUUAUUUA | 0.00534 ± 0.0034
16 | UCCUGGAUGAGCUGCAUAGUAUUUAGUUA | 0.00786 ± 0.0028
17 | UCCUCCAACAGCUUGCAUAGUAUAUAGUUA | 0.00628 ± 0.0027
18 | UCCUGCUACAGCUUGCAUAGUAUUUAGCUUA | 0.00522 ± 0.0019
19 | UCCUGGAUGAGCUUGCAUAGUGUUUAGUUA | 0.00987 ± 0.0028
20 | UCCUGGAUGUCGUUGCAUAGUAUUGAGUUA | 0.000515 ± 0.0088

Row | Sequence | pre-steady-state target cleavage rate
21 | UCCUGGAACAGCAAGCAUAGUAUUUUCAAA | 0.00211 ± 0.0032
22 | UCCUGCUACAGCUUGCAUAGUUUAUAGUUA | 0.00312 ± 0.0027
23 | UCCUGGAUGUGCUUGCGUAGUAUUUAGUUA | 0.00248 ± 0.0048
24 | UCCUGCUACACCUUGCAUAGUAUUUAGAUA | 0.00254 ± 0.0016
25 | UCCUGGUACAGCUUGCAUAGUAUUUAAUUA | 0.00206 ± 0.0058
26 | UCCUGCUACAGCUUGCACAGUAUUUAGUUA | 0.0133 ± 0.0041
27 | UCCUGCUACAGCUUGCAUAGAAAUUAGUUA | 0.0026 ± 0.0021
28 | UCCUGGAUCUGCUUGCAUAGAAUUUAGUUA | 0.00144 ± 0.0032
29 | UCCUGCUACAGCUUGCAUGUAUUUAGUUA | 0.00438 ± 0.0028
30 | UCCUGGUUGAGCUUGCAUAGUAUUUAGAAA | 0.00175 ± 0.0033
31 | UCCUGGAACUGCUUGCAUAGUAUUUACUUA | 0.00246 ± 0.0038
32 | UCCUGGAUCAGCUUGCAUAGUAUUUACGUUA | 0.0133 ± 0.0044
33 | UCCUGGAACAGCUUGCUUAGUAUUUAGUUA | 0.0181 ± 0.005
34 | UCCUGGAUGAGCUAGCAUAGAAUUUAGUUA | 0.00286 ± 0.0026
35 | UCCUGGAACAGCUUGCAUAGUAUAUAGUUA | 0.00501 ± 0.0025
36 | UCCUGGAUCAGCUUGCAUAGAAUUUAGUAA | 0.00215 ± 0.003
37 | UCCUGGAUGAGCUUGCAUAGUAUUUACUAA | 0.00198 ± 0.002
38 | UCCUGGUACAGCUAGCAUAGAAUUUAGUUA | 0.000943 ± 0.01
39 | UCCUGGAACAGCUUCCUUAGUAUUUAGUUA | 0.00362 ± 0.002

Same assay, conditions: auxiliary factor: none (no Gtsf1)

Row | Sequence | pre-steady-state target cleavage rate
40 | UCCUGGUACAGCUUGCAUACUAAUUAGUUA | 0.000231 ± 0.016
41 | UCCUGGAUCAGCUUGCAUUGUAUUUAGUAA | 0.000288 ± 0.036
42 | UCCUCCUACAGGUUGCAUAGUAUUAAGUUA | 0.000585 ± 0.011
43 | UCCUGCUACAGCUUGCAUAGUUUUAAGUUA | 0.000699 ± 0.0082
44 | UCCUGGAACAGGUUGCAUAGUAUUUAGAUA | 0.000263 ± 0.027
45 | UCCUGGAUGUCCUUGCAUAGUAUUUAGUAUA | 0.000106 ± 0.07
46 | UCCUGGAACAGCUUGCAUAGUUUUUAGAAA | 0.000435 ± 0.014
47 | UCCUGCAACAGCUUGCAUAGUAUUUAGAUA | 0.00035 ± 0.02
48 | UCCUGGUACAGCUUGCAUAGUAUUAUCAAA | 0.000346 ± 0.019
49 | UCCUGGAACAGCUUGCAUAGUAUUUAGUCUA | 0.000424 ± 0.018
50 | UCCUGGAUGUGCUUGCAUAGUUUUUAGUUA | 0.00138 ± 0.0088
51 | UCCUGGUACAGCUUCCUUAGUAUUUAGUUA | 0.000447 ± 0.016
52 | UCCUGGAUGUCCAUGCAAAGUAUUUAGUUA | 0.000114 ± 0.034
53 | UCCUGGUACAGCUUGCAGAGUAUUUAGUUA | 0.000388 ± 0.023
54 | UCCUGGAACAGCUUGCAUAGUAUUUAUUUA | 0.00106 ± 0.011
55 | UCCUGGAUGAGCUGCAUAGUAUUUAGUUA | 0.00139 ± 0.007
56 | UCCUCCAACAGCUUGCAUAGUAUAUAGUUA | 0.00107 ± 0.0064
57 | UCCUGCUACAGCUUGCAUAGUAUUUAGCUUA | 0.00057 ± 0.013
58 | UCCUGGAUGAGCUUGCAUAGUGUUUAGUUA | 0.000872 ± 0.015
59 | UCCUGGAUGUCGUUGCAUAGUAUUGAGUUA | 0.000205 ± 0.037

Row | Sequence | pre-steady-state target cleavage rate
60 | UCCUGGAACAGCAAGCAUAGUAUUUUCAAA | 0.000337 ± 0.029
61 | UCCUGCUACAGCUUGCAUAGUUUAUAGUUA | 0.000984 ± 0.0064
62 | UCCUGGAUGUGCUUGCGUAGUAUUUAGUUA | 0.00427 ± 0.0042
63 | UCCUGCUACACCUUGCAUAGUAUUUAGAUA | 0.000507 ± 0.013
64 | UCCUGGUACAGCUUGCAUAGUAUUUAAUUA | 0.000607 ± 0.032
65 | UCCUGCUACAGCUUGCACAGUAUUUAGUUA | 0.000625 ± 0.0089
66 | UCCUGCUACAGCUUGCAUAGAAAUUAGUUA | 0.000806 ± 0.0096
67 | UCCUGGAUCUGCUUGCAUAGAAUUUAGUUA | 0.000606 ± 0.012
68 | UCCUGCUACAGCUUGCAUGUAUUUAGUUA | 0.00116 ± 0.0074
69 | UCCUGGUUGAGCUUGCAUAGUAUUUAGAAA | 0.000636 ± 0.013
70 | UCCUGGAACUGCUUGCAUAGUAUUUACUUA | 0.000985 ± 0.0089
71 | UCCUGGAUCAGCUUGCAUAGUAUUUACGUUA | 0.011 ± 0.006
72 | UCCUGGAACAGCUUGCUUAGUAUUUAGUUA | 0.000809 ± 0.01
73 | UCCUGGAUGAGCUAGCAUAGAAUUUAGUUA | 0.000437 ± 0.02
74 | UCCUGGAACAGCUUGCAUAGUAUAUAGUUA | 0.00111 ± 0.0095
75 | UCCUGGAUCAGCUUGCAUAGAAUUUAGUAA | 0.000349 ± 0.017
76 | UCCUGGAUGAGCUUGCAUAGUAUUUACUAA | 0.000465 ± 0.016
77 | UCCUGGUACAGCUAGCAUAGAAUUUAGUUA | 0.000156 ± 0.054
78 | UCCUGGAACAGCUUCCUUAGUAUUUAGUUA | 0.00056 ± 0.009
